Results deposited as PubChem BioAssay AID1224830 (NIAID, 2016)

- Aim: 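Host factors that control LPS-induced TNF expression in human macrophages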 (primary screen)
- System: human THP-1 monocytic leukaemia cells, TNF dual-luciferase reporter clone, PMA-differentiated to macrophage-like cells
- Reagent: siRNA pool against human genes, 50 nM
- Duration: LPS for 4 h, given about 3 days after siRNA transfection
- Conditions: bacterial LPS (TLR4 ligand), 10 ng/ml
- Detection: 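Ratio of firefly to renilla light, scaled to the plate median and expressed as a robust z-score per replicate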
- Scale: TNF reporter robust z-score: higher = stronger TNF reporter response to LPS
- Hit rule: 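Each well counts as active if its z-score is over 2.8 or under -1.5; controls are left without a call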
This is a random part of about 18,000 reagents. Of all reagents, about 2,900 (16%) are marked active. 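Calls are made per well; low scores hint the gene aids the LPS response, high scores that it dampens it.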 Repeated entries: four replicate wells of each siRNA pool.

For REL, how do the results read?
TNF reporter robust z-score: 1.23; outcome: inactive

How did the screen score REL?
TNF reporter robust z-score: 3.2; outcome: active

What did the screen give for REL?
TNF reporter robust z-score: -0.3; outcome: inactive

What did the screen give for REL?
TNF reporter robust z-score: 0.52; outcome: inactive

With PCP4, how do the results read?
TNF reporter robust z-score: 1.23; outcome: inactive

For PCP4, what does the deposit list?
TNF reporter robust z-score: 1.51; outcome: inactive

With PCP4, what does the deposit list?
TNF reporter robust z-score: 1.44; outcome: inactive

For PCP4, how do the results read?
TNF reporter robust z-score: 0.81; outcome: inactive

How did the screen score CASTOR1?
TNF reporter robust z-score: -0.43; outcome: inactive

How did the screen score CASTOR1?
TNF reporter robust z-score: -0.8; outcome: inactive

With CASTOR1, what was measured?
TNF reporter robust z-score: -1.02; outcome: inactive

How did the screen score CASTOR1?
TNF reporter robust z-score: -0.89; outcome: inactive

With RPP14, how do the results read?
TNF reporter robust z-score: -0.07; outcome: inactive

What is on record for RPP14?
TNF reporter robust z-score: 0; outcome: inactive

What is on record for RPP14?
TNF reporter robust z-score: 0.21; outcome: inactive

Which result is listed for RPP14?
TNF reporter robust z-score: 0.55; outcome: inactive

With GLIS1, what was measured?
TNF reporter robust z-score: 1.46; outcome: inactive

For GLIS1, what was measured?
TNF reporter robust z-score: 1.03; outcome: inactive

For GLIS1, what was measured?
TNF reporter robust z-score: -0.8; outcome: inactive

With GLIS1, what does the deposit list?
TNF reporter robust z-score: 0.12; outcome: inactive

For KCNS3, what was measured?
TNF reporter robust z-score: 0.65; outcome: inactive

Which result is listed for KCNS3?
TNF reporter robust z-score: 0.26; outcome: inactive

For KCNS3, what was measured?
TNF reporter robust z-score: 0.84; outcome: inactive

With KCNS3, what does the deposit list?
TNF reporter robust z-score: 3.64; outcome: active

For LRRC56, what does the deposit list?
TNF reporter robust z-score: 0.64; outcome: inactive

For LRRC56, what does the deposit list?
TNF reporter robust z-score: 1.97; outcome: inactive

With LRRC56, what does the deposit list?
TNF reporter robust z-score: 1.12; outcome: inactive

What did the screen give for LRRC56?
TNF reporter robust z-score: 3.75; outcome: active

For PRG2, what was measured?
TNF reporter robust z-score: -1.57; outcome: active

For PRG2, how do the results read?
TNF reporter robust z-score: 0.02; outcome: inactive

Which result is listed for PRG2?
TNF reporter robust z-score: 1.15; outcome: inactive

What did the screen give for PRG2?
TNF reporter robust z-score: -0.27; outcome: inactive

What did the screen give for HPF1?
TNF reporter robust z-score: -0.8; outcome: inactive

Which result is listed for HPF1?
TNF reporter robust z-score: -1; outcome: inactive

How did the screen score HPF1?
TNF reporter robust z-score: -0.26; outcome: inactive

What is on record for HPF1?
TNF reporter robust z-score: 0.07; outcome: inactive

For PLK3, how do the results read?
TNF reporter robust z-score: -0.79; outcome: inactive

What did the screen give for PLK3?
TNF reporter robust z-score: -0.29; outcome: inactive

With PLK3, what does the deposit list?
TNF reporter robust z-score: 2.06; outcome: inactive

What is on record for PLK3?
TNF reporter robust z-score: -0.58; outcome: inactive

What is on record for EVI2B?
TNF reporter robust z-score: -0.68; outcome: inactive

How did the screen score EVI2B?
TNF reporter robust z-score: -0.21; outcome: inactive

What did the screen give for EVI2B?
TNF reporter robust z-score: 0.08; outcome: inactive

How did the screen score EVI2B?
TNF reporter robust z-score: 0.06; outcome: inactive

How did the screen score BTBD7?
TNF reporter robust z-score: -1; outcome: inactive

For BTBD7, how do the results read?
TNF reporter robust z-score: -0.92; outcome: inactive

What is on record for BTBD7?
TNF reporter robust z-score: -1.01; outcome: inactive

Which result is listed for BTBD7?
TNF reporter robust z-score: -0.64; outcome: inactive

Active calls, of those listed so far:
REL — TNF reporter robust z-score: 3.2; outcome: active
KCNS3 — TNF reporter robust z-score: 3.64; outcome: active
LRRC56 — TNF reporter robust z-score: 3.75; outcome: active
PRG2 — TNF reporter robust z-score: -1.57; outcome: active
